Reference: PubChem BioAssay AID1671190 (National Center for Advancing Translational Sciences (NCATS), 2021)
“And” between values parts separate entries of the source, which are not always exact repeats. Identical values can stand only once. About 6,100 (1.1%) of roughly 580,000 compounds were called active. Inconclusive results, whose numbers are uncertain, are shown with a selection of clear calls. The call rests on the fitted dose curve; in most records, active means well fitted inhibition curve with a large enough effect; inconclusive means small, poorly fitted or top-dose-only effect, or another doubt; inactive means no such curve, though single readings can be large or run the other way. A potency beside an inconclusive call is a rough fit, not a confirmed value.
On the % scale 0 is the no-effect control and ±100 the full control effect; potency means the concentration at half of the fitted maximal effect.

Amino acid sequences for entries named in this document (tags omitted). A change or cut given only in a name is not applied to a line headed by its entry.
UniProt P18054: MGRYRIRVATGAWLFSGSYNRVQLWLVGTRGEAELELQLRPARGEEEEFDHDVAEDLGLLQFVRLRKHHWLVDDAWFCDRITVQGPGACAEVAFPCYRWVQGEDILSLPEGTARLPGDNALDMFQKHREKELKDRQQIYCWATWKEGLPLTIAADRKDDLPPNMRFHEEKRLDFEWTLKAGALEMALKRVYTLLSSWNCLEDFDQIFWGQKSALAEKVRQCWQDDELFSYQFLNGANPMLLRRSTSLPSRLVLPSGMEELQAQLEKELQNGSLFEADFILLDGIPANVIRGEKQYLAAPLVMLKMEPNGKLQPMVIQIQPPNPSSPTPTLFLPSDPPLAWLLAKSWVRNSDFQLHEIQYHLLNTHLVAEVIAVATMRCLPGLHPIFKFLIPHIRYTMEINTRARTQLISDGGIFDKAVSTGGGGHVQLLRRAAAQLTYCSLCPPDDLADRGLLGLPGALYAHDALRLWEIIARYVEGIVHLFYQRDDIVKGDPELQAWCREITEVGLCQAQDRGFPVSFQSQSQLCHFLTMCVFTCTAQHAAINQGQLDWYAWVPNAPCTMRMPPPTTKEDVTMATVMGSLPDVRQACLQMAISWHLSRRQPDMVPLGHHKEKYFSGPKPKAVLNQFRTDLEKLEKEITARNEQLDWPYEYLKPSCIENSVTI

These compounds were tested against Polyunsaturated fatty acid lipoxygenase ALOX12 (Homo sapiens) (UniProt P18054) (assay: Primary qHTS assay for inhibitors of human arachidonate 12S-lipoxygenase (ALOX12): Round 2). Settings: purified 12hLO, xylenol orange hydroperoxide absorbance; activity change, negative = inhibition: at 108 µM (top of the series) unless noted.
Summary of the method: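 Hydroperoxide product was detected by ferrous iron/xylenol orange as the 573 to 405 nm absorbance ratio. Arachidonic acid at 40 uM (final) was turned over for 30 min at room temperature by 150 nM human 12hLO, pH 7.0 Hepes buffer, after 15 min compound preincubation.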
In the case of CCCCC1=CC2=CC(=O)C(C)(OC(=O)CC)C(=O)C2=CN1c1cccc(C#N)c1 (centres undefined), the Potency is reported as inconclusive: 50.1 µM [inhibitor, partial curve, poor fit].
For O=C(NCc1ccco1)C1CCN(Cc2ccc(F)cc2)CC1, the Potency was inconclusive: 0.447 µM [inhibitor, full curve, poor fit].
For CCN(CC)C(=O)CC(c1ccc(N(C)C)cc1)c1c(OC)cc(OC)c2ccc(=O)oc12 (centres undefined), the “activity change, negative = inhibition” value was inactive: -12.2%.
CCOC(=O)CN1CCCC1c1ccsc1 (centres undefined) was tested, and the Potency was inconclusive: 50.1 µM [inhibitor, single point].
For N#Cc1c(N2C(=O)c3ccc(C(=O)O)cc3C2=O)sc2c1CCCC2, the Potency was inconclusive: 50.1 µM [inhibitor, partial curve, poor fit].
In the case of COc1ccc(NC(=O)Cn2nnc(C(=O)NCc3ccc4c(c3)OCO4)c2N)c(OC)c1, the “activity change, negative = inhibition” value is reported as inactive: -26.7%.
In the case of O=C(NCCc1csc(-c2cccc(F)c2)n1)c1ccccc1C(F)(F)F, the Potency is reported as inconclusive: 178 µM [inhibitor, single point].
For Cc1cc(C)c2nc(C)cc(C(=O)O)c2c1, the “activity change, negative = inhibition” value was inactive: -18.1%.
In the case of Cc1cccc(NC(=O)c2ccccc2NC(=O)c2nc(-c3ccccc3)oc2C)c1, the Potency is reported as active: 35.5 µM.
For CCCc1cnc2c(c1SCC(=O)Nc1c(C)cc(C)cc1C)c(=O)n(C)c(=O)n2C, the Potency was inconclusive: 126 µM [inhibitor, partial curve, poor fit].
In the case of CC1=C[C@@H](CNC(=O)CN(C)C)[C@H](C(C)C)C[C@H]1Cc1nc2ccc(Cl)cc2[nH]1, the Potency is reported as inconclusive: 112 µM [inhibitor, single point].
In the case of COc1ccc(-c2csc(NNC3=NCCCCC3)n2)cc1, the Potency is reported as inconclusive: 35.5 µM [inhibitor, partial curve].
In the case of CN(C)C(=O)c1ccc(OC2CCN(C(=O)c3ccc(Br)cc3)CC2)nc1, the “activity change, negative = inhibition” value is reported as inactive: 10.6%.
In the case of COC(=O)c1ccc(NC(=O)Cn2c(-c3nonc3N)nc3ccccc32)cc1, the Potency is reported as inconclusive: 100 µM [inhibitor, partial curve, poor fit].
For Cc1cccc(-c2nc(CN3CCCC(C(=O)NCc4ccc(Cl)cc4)C3)c(C)o2)c1 (centres undefined), the Potency was inconclusive: 50.1 µM [inhibitor, partial curve, poor fit].
With Cc1nonc1C(=O)N/N=C/c1ccc(O)c(O)c1 the Potency was inconclusive: 0.447 µM [inhibitor, full curve, poor fit].
For O=C(C1CCCCC1)N1CCN(S(=O)(=O)c2ccc(Br)cc2)CC1, the Potency was inconclusive: 3.55 µM [inhibitor, full curve, poor fit].
COc1cc2ccc3c(CCN(C)C)cc(OC)c(OC)c3c2cc1OC was tested, and the “activity change, negative = inhibition” value was inactive: 12.2%.
In the case of Cc1ccc(CN2CCSCC2)c(C)c1, the “activity change, negative = inhibition” value is reported as inactive: -27%.
For CCCCCCCCCCCCOC(C)=O, the “activity change, negative = inhibition” value was inactive: -15.5% [at 176 µM].
For COc1ccc(-c2cc(N3CCN(C(=O)Cc4ccc(Br)cc4)CC3)n[nH]2)cc1, the Potency was inconclusive: 31.6 µM [inhibitor, partial curve].
With CC(C)(NO)/C(=N\O)c1ccc(Cl)cc1 the Potency was inconclusive: 31.6 µM [inhibitor, partial curve, poor fit].
With Cc1ccoc1C(=O)NCCCNC(=O)c1occc1C the “activity change, negative = inhibition” value was inactive: 0%.
With Cc1cc(Br)ccc1OCc1nnc(-c2ccccc2)o1 the Potency was inconclusive: 126 µM [inhibitor, partial curve, poor fit].
CCOC(=O)c1sc(N(Cc2ccccc2)C(=O)CSc2nnc(C3CC3)n2N)nc1C was tested, and the Potency was inconclusive: 56.2 µM [inhibitor, partial curve, poor fit].
For COc1cccc(CN(C)c2nc(-c3cccs3)nc3ccccc23)c1, the “activity change, negative = inhibition” value was inactive: 7.7%.
In the case of CCC1(C)CC(CCNS(=O)(=O)c2ccc(C)cc2)(c2ccc(C)cc2)CCO1 (centres undefined), the Potency is reported as inconclusive: 100 µM [inhibitor, partial curve, poor fit].
CCCCOc1ccc(C(=O)Nc2ccccc2C(C)(C)C)cc1OCC was tested, and the “activity change, negative = inhibition” value was inactive: 58%.
With O=C(O)CNC(=O)C(CS)Cc1ccccc1 (centres undefined) the Potency was “inactive and inconclusive: 1.26 µM [inhibitor, full curve, poor fit]”.
O=C(c1ccccc1)c1ccc(C2CC2)cc1 was tested, and the Potency was inconclusive: 35.5 µM [inhibitor, single point].
With Cc1cc(C)cc(N(C(=O)c2nsc(Cl)c2Cl)C(C(=O)NC2CCCC2)c2ccc(O)cc2)c1 (centres undefined) the “activity change, negative = inhibition” value was inactive: -12.1%.
In the case of CCCSc1n[nH]c2nc3c(c(=O)n12)C(C)(CC)Cc1ccccc1-3 (centres undefined), the Potency is reported as inconclusive: 25.1 µM [inhibitor, full curve, poor fit].
In the case of O=C(/C=C/c1cn(CC(O)CN2CCCCCC2)c2ccccc12)c1cccs1 (centres undefined), the Potency is reported as inconclusive: 79.4 µM [inhibitor, partial curve, poor fit].
For CCC(C)NC(=O)Nc1ccc2c(c1)N(S(=O)(=O)CC)CC2 (centres undefined), the Potency was inconclusive: 8.91 µM [inhibitor, full curve, poor fit].
With Cc1cnc(C(=O)N[C@@H]2CCC[C@@H]2C(=O)NCCc2ccc(Cl)cc2)cn1 the “activity change, negative = inhibition” value was inactive: 32.7%.
For C/C(=N/Nc1ncc(Br)cn1)c1ccc(Br)cc1, the “activity change, negative = inhibition” value was inactive: 2.93%.
For Cc1ccc(CN(C)C(=O)c2cnc3ccccc3n2)c(C)c1, the “activity change, negative = inhibition” value was inactive: 9.99%.
Cc1cccc(CCNC(=O)c2ccc3c(Cl)c4c(nc3c2)CCCC4)c1 was tested, and the “activity change, negative = inhibition” value was inactive: -4.22%.
In the case of COc1ccc(NC(=O)CSc2nc3ccccc3o2)c(OC)c1, the Potency is reported as inconclusive: 158 µM [inhibitor, partial curve, poor fit].
With Cc1ccc(S(=O)(=O)OCCCCOS(=O)(=O)c2ccc(C)cc2)cc1 the Potency was inconclusive: 3.98 µM [inhibitor, full curve, poor fit].
With CCc1ccc(-n2c(=S)sc3c(=O)[nH]c(SCC(=O)NC4CCCCC4)nc32)cc1 the Potency was inconclusive: 79.4 µM [inhibitor, partial curve, poor fit].
CC(C)c1nc2c(c(-c3ccc(Cl)cc3)n1)CN(C(=O)c1ccccc1)CC2 was tested, and the Potency was inconclusive: 28.2 µM [inhibitor, full curve].
With CC1(c2nnnn2-c2ccc3c(c2)OCCO3)CCC(=O)N1Cc1ccc(F)cc1 (centres undefined) the Potency was inconclusive: 35.5 µM [inhibitor, partial curve, poor fit].
With Cc1ccc(CN(C)CC(=O)NC(=O)NC(C)(C)C)cc1 the Potency was inconclusive: 44.7 µM [inhibitor, partial curve, poor fit].
